# PubChem BioAssay AID602196, INSERM – 2012
# Assay: 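Genes whose knock-down alters cisplatin killing of lung cancer cells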
# Cell system: human A549 lung cancer cells
# Reagents: siRNA pair against human genes
# Timing: 48 h transfection before cisplatin; time from cisplatin to read-out not stated
# Treatment: cisplatin at a dose killing half of control-siRNA cells; exact dose and duration not given
# Read-out: 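Cisplatin cell death as a shift from the 50% death seen with control siRNA; siRNAs toxic or growth-blocking alone scored 0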
# Direction: two-siRNA summed score (-2 to +2): higher = both siRNAs protect from cisplatin killing; -2 means both sensitise; mean protection from cisplatin (shift in death) and protection from cisplatin (shift in death), siRNA C and protection from cisplatin (shift in death), siRNA D: higher = protection from cisplatin killing
# Call rule: 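siRNAs harmful alone (LDH or WST-1) get 0; others get +1 for less and -1 for more cisplatin killing; genes are active when the two siRNAs give the same sign, summing to ±2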
# Calls: active = both siRNAs shift cisplatin killing the same way; inactive = no consistent shift, or siRNA harmful alone
# In all, the deposit lists about 23,000 reagents; shown is a random part of them. 455 of them (2%) count as active. 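Active includes both protection and sensitisation; some change values fall well beyond the stated -50 to +50 range.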 A number with no mark means an inactive call. Not stated in the record: the amount of reagent.
gene symbol,two-siRNA summed score (-2 to +2),mean protection from cisplatin (shift in death) (%),"protection from cisplatin (shift in death), siRNA C (%)","protection from cisplatin (shift in death), siRNA D (%)"
RLN2,0,4.2,8,0.4
LOC283432,0,1.7,-3.9,7.3
ADM,0,2.7,4.3,1.1
TUT1,-1,-1.9,-20,16.3
NENF,0,16.2,20.7,11.8
SLC25A2,1,15.5,12.5,18.4
LOC390667,-1,13.6,41.4,-14.1
H2BW1,0,2.3,-2.3,7
ZNF614,0,-12.5,-16.8,-8.2
ZNF595,0,7.2,6.7,7.8
LOC440408,1,12.8,7.7,17.9
ITGA8,0,1.7,7.4,-4
LOC400812,1,7.6,-5.9,21.2
TMEM14B,0,-6,6,-18
LOC389248,0,7.2,21.5,-7.2
LOC400691,0,10,3.8,16.2
TIGIT,0,1.8,-8,11.6
SH2D4B,0,1.7,-0.8,4.2
TEAD3,0,3.4,6,0.9
CFAP53,0,-1,-2,0
DNAJC8,0,-0.6,-3.8,2.7
LOC389392,1,8.5,-1.6,18.7
CRYAA,0,9.6,15.8,3.4
EIF3C,0,3.6,6.8,0.5
KRT23,0,9.6,10.3,8.9
LOC401704,1,8.8,23,-5.4
OR8S1,0,1.6,3,0.2
RPP14,1,3.2,7.8,-1.4
LOC387777,0,14.5,20.4,8.6
CD27,-1,-7,-20,6
SYP,0,2.5,17.5,-12.5
CASQ1,1,6.8,-2.1,15.6
ADAM9,0,-1.8,-8.3,4.8
LOC441538,0,15.1,15,15.2
LOC389024,0,7.4,11.4,3.4
ZMYM1,0,12.9,13.5,12.3
DIABLO,1,16.2,7.4,25
CSPG5,0,2.2,5,-0.6
KCTD11,0,0.4,13.5,-12.8

Part of the list above, set out differently:
{"gene symbol":"H2BW1","two-siRNA summed score (-2 to +2)":0,"mean protection from cisplatin (shift in death) (%)":2.3,"protection from cisplatin (shift in death), siRNA C (%)":-2.3,"protection from cisplatin (shift in death), siRNA D (%)":7}
{"gene symbol":"ZNF614","two-siRNA summed score (-2 to +2)":0,"mean protection from cisplatin (shift in death) (%)":-12.5,"protection from cisplatin (shift in death), siRNA C (%)":-16.8,"protection from cisplatin (shift in death), siRNA D (%)":-8.2}
{"gene symbol":"ZNF595","two-siRNA summed score (-2 to +2)":0,"mean protection from cisplatin (shift in death) (%)":7.2,"protection from cisplatin (shift in death), siRNA C (%)":6.7,"protection from cisplatin (shift in death), siRNA D (%)":7.8}
{"gene symbol":"LOC440408","two-siRNA summed score (-2 to +2)":1,"mean protection from cisplatin (shift in death) (%)":12.8,"protection from cisplatin (shift in death), siRNA C (%)":7.7,"protection from cisplatin (shift in death), siRNA D (%)":17.9}
{"gene symbol":"ITGA8","two-siRNA summed score (-2 to +2)":0,"mean protection from cisplatin (shift in death) (%)":1.7,"protection from cisplatin (shift in death), siRNA C (%)":7.4,"protection from cisplatin (shift in death), siRNA D (%)":-4}
